This note sets out measurements from article PMC10469732.

By UniProt entry, the sequences of proteins in these tests, tags left out.
UniProt P42227: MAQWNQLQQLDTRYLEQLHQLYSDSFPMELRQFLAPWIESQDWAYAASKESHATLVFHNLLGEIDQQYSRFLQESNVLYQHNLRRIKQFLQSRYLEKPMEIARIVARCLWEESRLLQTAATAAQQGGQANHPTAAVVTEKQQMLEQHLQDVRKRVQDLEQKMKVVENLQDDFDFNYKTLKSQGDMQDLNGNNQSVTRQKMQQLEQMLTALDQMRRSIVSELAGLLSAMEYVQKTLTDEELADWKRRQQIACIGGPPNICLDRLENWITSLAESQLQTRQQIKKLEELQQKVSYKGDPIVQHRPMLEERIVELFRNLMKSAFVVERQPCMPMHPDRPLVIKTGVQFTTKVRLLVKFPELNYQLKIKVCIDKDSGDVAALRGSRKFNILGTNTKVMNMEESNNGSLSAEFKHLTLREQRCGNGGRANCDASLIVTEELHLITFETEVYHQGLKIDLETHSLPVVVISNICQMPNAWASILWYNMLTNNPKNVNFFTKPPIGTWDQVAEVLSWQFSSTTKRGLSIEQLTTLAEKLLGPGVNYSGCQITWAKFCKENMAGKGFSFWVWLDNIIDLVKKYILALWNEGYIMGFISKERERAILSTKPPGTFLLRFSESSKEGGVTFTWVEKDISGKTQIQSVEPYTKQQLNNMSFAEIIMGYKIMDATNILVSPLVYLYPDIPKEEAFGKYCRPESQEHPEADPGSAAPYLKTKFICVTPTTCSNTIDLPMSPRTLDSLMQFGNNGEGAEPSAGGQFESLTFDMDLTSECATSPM
UniProt P46938: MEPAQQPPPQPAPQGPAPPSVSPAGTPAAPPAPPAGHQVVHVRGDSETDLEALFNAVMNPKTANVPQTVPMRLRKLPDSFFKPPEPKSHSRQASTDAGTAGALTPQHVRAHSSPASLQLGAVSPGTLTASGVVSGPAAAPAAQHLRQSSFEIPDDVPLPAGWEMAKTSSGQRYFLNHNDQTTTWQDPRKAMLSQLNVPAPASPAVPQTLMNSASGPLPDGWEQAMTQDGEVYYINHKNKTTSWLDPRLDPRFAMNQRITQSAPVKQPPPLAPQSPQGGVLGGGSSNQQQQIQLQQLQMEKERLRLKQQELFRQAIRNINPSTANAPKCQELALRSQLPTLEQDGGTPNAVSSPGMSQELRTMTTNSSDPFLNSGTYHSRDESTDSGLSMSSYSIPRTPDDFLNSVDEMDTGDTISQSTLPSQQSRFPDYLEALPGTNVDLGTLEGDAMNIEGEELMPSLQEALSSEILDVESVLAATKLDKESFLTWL

Results are given in words; binding and its absence hold for the method and conditions named. In cells and extracts the contact can be indirect. Some results given as binding are weak or reduced against the parent protein; the word gives no strength.

This assay deals with Signal transducer and activator of transcription 3 (UniProt P42227). Description: co-IP; lysate in IP lysis buffer; antibody to YAP or STAT3 overnight at 4°C, Protein A/G agarose beads 2 h at 4°C, 4 washes; normal rabbit IgG as control; western blot for STAT3 and YAP.

“YAP-associated protein (YAP) (from UniProt P46938 1-488)”: the binding entry is on record as “binds”.
